The other results are listed elsewhere or left out.
Each target was assayed with COc1ccc(Cn2ccc3ccc(C(=O)NO)cc32)cc1 (assay: dose-dependent thermal stabilisation call (2D-TPP, DLPTP, 10% FDR) (binary (1 = stabilised)); higher = stabilised by the compound). Conditions: system: HL-60 intact cells; concentration range 0.04-10 µM.

By UniProt entry, the sequences of proteins in these tests, tags left out. Where a name states a change or a piece, a line headed by the entry shows the natural chain unless it says otherwise.
UniProt P49642: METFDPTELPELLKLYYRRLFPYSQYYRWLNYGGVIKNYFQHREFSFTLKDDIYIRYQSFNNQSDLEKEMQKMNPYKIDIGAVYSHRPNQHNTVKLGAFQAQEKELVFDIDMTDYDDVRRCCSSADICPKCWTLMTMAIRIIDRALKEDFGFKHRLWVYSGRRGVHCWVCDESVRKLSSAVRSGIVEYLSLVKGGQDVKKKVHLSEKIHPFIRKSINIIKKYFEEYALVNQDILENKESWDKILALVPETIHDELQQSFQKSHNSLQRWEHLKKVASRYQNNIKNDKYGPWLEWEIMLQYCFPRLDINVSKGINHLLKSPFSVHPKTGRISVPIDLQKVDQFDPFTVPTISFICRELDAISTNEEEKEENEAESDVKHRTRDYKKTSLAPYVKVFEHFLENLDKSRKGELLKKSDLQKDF
UniProt Q8TCU6, whole entry: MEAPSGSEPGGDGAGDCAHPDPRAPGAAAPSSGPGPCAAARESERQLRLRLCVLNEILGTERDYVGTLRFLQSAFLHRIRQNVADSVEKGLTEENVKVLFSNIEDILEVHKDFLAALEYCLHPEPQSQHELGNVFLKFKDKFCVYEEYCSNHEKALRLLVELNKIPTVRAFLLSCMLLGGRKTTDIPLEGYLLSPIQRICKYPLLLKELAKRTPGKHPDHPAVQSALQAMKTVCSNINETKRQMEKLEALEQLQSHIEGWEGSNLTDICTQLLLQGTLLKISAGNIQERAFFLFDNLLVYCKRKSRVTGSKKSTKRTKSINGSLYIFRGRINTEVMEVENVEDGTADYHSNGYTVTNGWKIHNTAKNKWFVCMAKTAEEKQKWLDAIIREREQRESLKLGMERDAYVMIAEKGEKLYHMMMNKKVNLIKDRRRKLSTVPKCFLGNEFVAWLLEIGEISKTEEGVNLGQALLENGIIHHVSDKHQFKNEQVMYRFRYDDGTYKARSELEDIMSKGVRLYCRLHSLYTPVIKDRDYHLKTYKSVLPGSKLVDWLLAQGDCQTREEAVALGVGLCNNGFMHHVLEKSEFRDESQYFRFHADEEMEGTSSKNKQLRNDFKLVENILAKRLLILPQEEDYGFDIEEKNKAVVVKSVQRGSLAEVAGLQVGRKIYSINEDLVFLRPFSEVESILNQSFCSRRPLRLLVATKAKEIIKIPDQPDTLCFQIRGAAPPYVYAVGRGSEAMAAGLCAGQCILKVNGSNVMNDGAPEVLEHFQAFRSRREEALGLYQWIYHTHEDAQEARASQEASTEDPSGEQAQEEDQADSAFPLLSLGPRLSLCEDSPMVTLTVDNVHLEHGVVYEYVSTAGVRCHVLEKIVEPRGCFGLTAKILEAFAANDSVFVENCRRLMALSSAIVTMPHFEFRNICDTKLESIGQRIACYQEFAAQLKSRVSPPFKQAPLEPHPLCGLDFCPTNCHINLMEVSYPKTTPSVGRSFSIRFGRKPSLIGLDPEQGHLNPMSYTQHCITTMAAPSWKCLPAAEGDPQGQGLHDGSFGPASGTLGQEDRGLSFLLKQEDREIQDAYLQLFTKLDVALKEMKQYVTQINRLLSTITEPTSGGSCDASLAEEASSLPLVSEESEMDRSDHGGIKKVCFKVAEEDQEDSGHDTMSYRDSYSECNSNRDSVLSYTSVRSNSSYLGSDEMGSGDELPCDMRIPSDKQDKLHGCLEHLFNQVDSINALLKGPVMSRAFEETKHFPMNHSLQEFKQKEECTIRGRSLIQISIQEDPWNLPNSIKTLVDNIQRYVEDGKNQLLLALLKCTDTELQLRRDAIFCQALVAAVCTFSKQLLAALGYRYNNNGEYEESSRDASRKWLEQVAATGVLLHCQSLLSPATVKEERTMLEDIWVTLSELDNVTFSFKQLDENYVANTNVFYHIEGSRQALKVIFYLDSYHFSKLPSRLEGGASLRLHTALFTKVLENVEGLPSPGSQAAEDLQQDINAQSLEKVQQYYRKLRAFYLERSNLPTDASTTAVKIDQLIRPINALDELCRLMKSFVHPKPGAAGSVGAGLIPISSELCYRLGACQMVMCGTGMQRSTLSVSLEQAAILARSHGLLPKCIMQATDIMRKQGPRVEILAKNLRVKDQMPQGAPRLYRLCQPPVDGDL
UniProt P16435: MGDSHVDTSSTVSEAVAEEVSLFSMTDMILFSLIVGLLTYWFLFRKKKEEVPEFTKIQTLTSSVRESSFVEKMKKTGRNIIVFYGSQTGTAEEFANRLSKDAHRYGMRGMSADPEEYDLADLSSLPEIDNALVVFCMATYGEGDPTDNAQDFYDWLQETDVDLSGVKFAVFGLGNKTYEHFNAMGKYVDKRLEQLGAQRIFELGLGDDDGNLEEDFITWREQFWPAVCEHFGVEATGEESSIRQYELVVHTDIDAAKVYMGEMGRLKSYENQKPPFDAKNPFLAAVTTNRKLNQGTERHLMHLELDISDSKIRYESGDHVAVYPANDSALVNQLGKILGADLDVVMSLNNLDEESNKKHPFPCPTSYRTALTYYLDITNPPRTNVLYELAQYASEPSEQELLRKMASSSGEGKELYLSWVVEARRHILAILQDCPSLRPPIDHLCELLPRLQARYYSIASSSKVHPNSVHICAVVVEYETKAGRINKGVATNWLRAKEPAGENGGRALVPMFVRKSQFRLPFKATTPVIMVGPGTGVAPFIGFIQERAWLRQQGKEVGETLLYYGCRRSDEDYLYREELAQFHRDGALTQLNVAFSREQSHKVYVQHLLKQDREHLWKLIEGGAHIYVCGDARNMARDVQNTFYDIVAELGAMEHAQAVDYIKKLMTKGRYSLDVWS
UniProt O75151: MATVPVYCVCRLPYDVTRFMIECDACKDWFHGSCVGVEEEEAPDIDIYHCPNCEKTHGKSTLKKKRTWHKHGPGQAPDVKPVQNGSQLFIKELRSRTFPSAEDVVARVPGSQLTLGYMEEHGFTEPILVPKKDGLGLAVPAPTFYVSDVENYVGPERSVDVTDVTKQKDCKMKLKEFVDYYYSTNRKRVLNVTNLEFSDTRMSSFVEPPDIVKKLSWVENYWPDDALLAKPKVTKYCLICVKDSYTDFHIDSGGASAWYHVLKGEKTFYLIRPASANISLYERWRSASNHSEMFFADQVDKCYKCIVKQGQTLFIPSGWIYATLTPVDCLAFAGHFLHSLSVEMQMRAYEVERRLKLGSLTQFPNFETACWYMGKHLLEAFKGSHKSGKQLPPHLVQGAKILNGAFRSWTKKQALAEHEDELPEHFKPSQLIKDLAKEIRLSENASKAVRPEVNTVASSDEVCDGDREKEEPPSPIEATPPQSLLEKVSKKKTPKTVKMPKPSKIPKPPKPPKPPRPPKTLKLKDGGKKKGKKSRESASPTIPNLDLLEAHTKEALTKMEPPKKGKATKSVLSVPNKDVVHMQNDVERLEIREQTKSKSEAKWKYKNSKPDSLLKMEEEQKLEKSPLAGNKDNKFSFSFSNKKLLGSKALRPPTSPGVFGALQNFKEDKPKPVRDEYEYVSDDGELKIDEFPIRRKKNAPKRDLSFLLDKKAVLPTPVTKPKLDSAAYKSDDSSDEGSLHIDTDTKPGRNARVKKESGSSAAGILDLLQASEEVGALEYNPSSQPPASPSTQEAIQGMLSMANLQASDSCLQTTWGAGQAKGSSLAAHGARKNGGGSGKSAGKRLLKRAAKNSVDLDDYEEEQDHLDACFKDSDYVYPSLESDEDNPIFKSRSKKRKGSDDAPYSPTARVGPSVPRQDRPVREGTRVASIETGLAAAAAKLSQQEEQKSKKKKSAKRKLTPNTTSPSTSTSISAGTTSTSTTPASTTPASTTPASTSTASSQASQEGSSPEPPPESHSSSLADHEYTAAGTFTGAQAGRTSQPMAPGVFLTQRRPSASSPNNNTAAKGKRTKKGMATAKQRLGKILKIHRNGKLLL
UniProt P47712: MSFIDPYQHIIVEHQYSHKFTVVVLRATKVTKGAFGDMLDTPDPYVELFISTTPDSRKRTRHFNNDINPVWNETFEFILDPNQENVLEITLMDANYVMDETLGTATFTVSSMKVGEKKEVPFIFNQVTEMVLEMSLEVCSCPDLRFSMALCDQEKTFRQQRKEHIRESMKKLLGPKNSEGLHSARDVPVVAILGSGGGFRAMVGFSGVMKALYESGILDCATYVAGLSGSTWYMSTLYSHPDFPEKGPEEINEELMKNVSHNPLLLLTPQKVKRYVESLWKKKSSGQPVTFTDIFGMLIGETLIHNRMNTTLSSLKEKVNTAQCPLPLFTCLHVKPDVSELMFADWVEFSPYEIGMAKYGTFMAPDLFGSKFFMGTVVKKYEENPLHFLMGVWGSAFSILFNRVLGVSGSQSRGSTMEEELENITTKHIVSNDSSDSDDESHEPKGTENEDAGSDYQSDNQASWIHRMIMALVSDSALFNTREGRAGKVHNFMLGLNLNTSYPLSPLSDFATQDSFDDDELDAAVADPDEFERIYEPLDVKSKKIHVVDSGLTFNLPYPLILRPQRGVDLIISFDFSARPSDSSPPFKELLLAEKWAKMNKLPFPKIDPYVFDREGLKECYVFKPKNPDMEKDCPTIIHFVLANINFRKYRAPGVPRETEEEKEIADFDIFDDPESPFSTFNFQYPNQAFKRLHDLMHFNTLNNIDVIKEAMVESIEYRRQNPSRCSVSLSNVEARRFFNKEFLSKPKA
UniProt Q6PCE3: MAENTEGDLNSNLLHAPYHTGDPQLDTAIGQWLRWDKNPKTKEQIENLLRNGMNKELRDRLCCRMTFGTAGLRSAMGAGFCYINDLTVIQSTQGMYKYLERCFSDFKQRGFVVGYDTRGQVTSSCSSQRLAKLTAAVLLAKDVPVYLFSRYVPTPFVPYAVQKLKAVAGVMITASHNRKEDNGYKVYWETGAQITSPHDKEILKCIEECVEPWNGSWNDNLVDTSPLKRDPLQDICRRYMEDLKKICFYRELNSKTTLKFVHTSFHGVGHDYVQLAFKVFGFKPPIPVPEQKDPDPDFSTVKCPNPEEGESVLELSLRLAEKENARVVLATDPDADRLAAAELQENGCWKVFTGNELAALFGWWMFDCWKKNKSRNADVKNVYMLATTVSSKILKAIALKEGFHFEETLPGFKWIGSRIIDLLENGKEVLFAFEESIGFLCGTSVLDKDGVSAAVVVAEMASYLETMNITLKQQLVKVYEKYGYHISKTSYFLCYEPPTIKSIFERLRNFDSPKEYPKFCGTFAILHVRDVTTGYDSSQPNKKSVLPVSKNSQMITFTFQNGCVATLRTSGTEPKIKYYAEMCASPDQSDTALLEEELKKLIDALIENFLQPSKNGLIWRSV
UniProt Q8WUB8: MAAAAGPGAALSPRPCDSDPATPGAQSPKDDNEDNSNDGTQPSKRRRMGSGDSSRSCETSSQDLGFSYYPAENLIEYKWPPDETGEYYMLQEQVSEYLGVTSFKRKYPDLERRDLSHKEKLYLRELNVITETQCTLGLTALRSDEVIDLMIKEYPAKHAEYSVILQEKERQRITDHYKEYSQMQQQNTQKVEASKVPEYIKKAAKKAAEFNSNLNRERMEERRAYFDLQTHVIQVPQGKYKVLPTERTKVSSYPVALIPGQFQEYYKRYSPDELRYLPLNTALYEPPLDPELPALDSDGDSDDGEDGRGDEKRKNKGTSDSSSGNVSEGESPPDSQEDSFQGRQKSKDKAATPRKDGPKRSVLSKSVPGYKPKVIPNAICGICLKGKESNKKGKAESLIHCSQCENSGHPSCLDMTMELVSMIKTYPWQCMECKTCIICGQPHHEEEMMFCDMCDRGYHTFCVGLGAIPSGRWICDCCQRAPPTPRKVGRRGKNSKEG
UniProt P50336: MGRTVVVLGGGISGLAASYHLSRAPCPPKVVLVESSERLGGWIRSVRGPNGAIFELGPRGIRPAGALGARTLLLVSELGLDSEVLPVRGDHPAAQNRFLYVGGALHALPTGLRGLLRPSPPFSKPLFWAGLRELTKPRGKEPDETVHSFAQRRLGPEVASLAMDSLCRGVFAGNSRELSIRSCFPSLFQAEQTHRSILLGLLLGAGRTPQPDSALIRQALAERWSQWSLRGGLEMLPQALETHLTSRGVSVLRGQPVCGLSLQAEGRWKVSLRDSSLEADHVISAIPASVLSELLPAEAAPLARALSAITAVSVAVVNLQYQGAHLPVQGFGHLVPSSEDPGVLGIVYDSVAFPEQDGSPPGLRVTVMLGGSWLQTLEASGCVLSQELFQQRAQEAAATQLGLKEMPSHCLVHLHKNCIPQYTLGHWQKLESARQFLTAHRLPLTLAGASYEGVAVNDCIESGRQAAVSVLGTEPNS

Target | dose-dependent thermal stabilisation call
POLR2C (UniProt P19387) | inactive: 0
PRIM1 (UniProt P49642) | inactive: 0
PREX1 (UniProt Q8TCU6) | inactive: 0
POR (UniProt P16435) | inactive: 0
PHF2 (UniProt O75151) | inactive: 0
PLA2G4A (UniProt P47712) | inactive: 0
PGM2L1 (UniProt Q6PCE3) | inactive: 0
PITRM1 (UniProt Q5JRX3) | inactive: 0
PHF10 (UniProt Q8WUB8) | inactive: 0
PPOX (UniProt P50336) | inactive: 0

From the supplement of paper PMC7666118
